Source: PubChem BioAssay AID1259254 (NCATS, 2017)

- Assay: 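Gene knock-downs that lead to re-replication, shown by excess G2 DNA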 (primary screen)
- Cell system: human HCT116 colorectal cancer cells
- Reagents: single siRNA against human genes
- Time to read-out: 3 days
- Detection: 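Imaged Hoechst DNA stain sorts each cell into a cycle phase by DNA amount; per plate, G2 fraction set to 0% for non-targeting and 100% for GMNN siRNA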
- Direction: G2 robust z-score: higher = more G2 cells, more excess DNA replication
- Call rule: 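An siRNA counts as active if its G2 robust z-score lies at least 5 MADs above the screen median; here such calls match roughly 38% of GMNN control or more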
Here is an unselected part of about 59,000 reagents tested. Over the whole deposit, about 1,550 (2.6%) are marked active. 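G2 share is only a proxy for re-replication; each gene was hit by three separate siRNAs, and active genes were retested.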 Reagents against one gene are numbered here. Not all columns of the deposit are shown. No sequences are given here. Not given: the amount of reagent.

With knock-down of TRIM53BP (tripartite motif containing 53B, pseudogene) #1 the results were G2 robust z-score -0.0748; inactive.
With knock-down of TRIM53BP (tripartite motif containing 53B, pseudogene) #2 the results were G2 robust z-score -0.652; inactive.
With knock-down of TRIM53BP (tripartite motif containing 53B, pseudogene) #3 the results were G2 robust z-score -0.341; inactive.
Against ZNF43 (zinc finger protein 43) #1, the entry reads G2 robust z-score -0.646; inactive.
Against ZNF43 (zinc finger protein 43) #2, the values are G2 robust z-score -1.85; inactive.
After knock-down of ZNF43 (zinc finger protein 43) #3, the record shows G2 robust z-score 0.965; inactive.
Against HAT1 (histone acetyltransferase 1) #1, the entry reads G2 robust z-score 3.62; inactive.
After knock-down of HAT1 (histone acetyltransferase 1) #2 the results were G2 robust z-score -0.688; inactive.
After knock-down of HAT1 (histone acetyltransferase 1) #3 the results were G2 robust z-score -0.337; inactive.
After knock-down of CHIC2 (cysteine rich hydrophobic domain 2) #1, the record shows G2 robust z-score -1.01; inactive.
CHIC2 (cysteine rich hydrophobic domain 2) #2 gave G2 robust z-score 0.49; inactive.
After knock-down of CHIC2 (cysteine rich hydrophobic domain 2) #3, the record shows G2 robust z-score -0.582; inactive.
For SDR16C5 (short chain dehydrogenase/reductase family 16C member 5) #1, the values are G2 robust z-score -0.252; inactive.
Knock-down of SDR16C5 (short chain dehydrogenase/reductase family 16C member 5) #2 came out at: G2 robust z-score 0.891; inactive.
Depletion of SDR16C5 (short chain dehydrogenase/reductase family 16C member 5) #3 came out at: G2 robust z-score -1; inactive.
MOSPD2 (motile sperm domain containing 2) #1 scored G2 robust z-score -0.76; inactive.
With knock-down of MOSPD2 (motile sperm domain containing 2) #2 the results were G2 robust z-score -0.779; inactive.
Knock-down of MOSPD2 (motile sperm domain containing 2) #3 gave: G2 robust z-score 0.891; inactive.
